Data source: PubChem BioAssay AID686937 (Drosophila RNAi Screening Center, 2013)
In all, the deposit lists about 23,000 reagents; this is a random part of those with a known target gene and a result. 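Reduced-secretion tags in replicate 1 do not always agree with the z-scores; no criterion for assigning the tags was given.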 Names joined by + are all predicted targets of the reagent. Further read-outs or replicates are left out here. Reagent sequences are not shown. Not given: the amount of reagent.

- Aim: 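Genes in the fly needed for secretion of protein constitutively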 (primary screen)
- Cells: Drosophila S2 cells expressing secreted horseradish peroxidase
- Reagent: long dsRNA against Drosophila genes
- Time to read-out: about 5.5 days (5 days dsRNA, then 12 h reporter induction)
- Treatment: reporter expression induced after 5 days of dsRNA, read 12 h later; inducer not stated
- Measurement: 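Chemiluminescent measurement of peroxidase in the medium 12 h after reporter induction, following 5 days of dsRNA, given as a z-score per plate; higher means more secretion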
- Direction: z-score: higher = more reporter secreted into medium

What did the screen give for CG2233 [DRSC18217]?
z-score, replicate 1: 0.44

With CG6310 [DRSC10619], how do the results read?
z-score, replicate 1: 0.29

With bcd + CR14578 [DRSC20984], what does the deposit list?
z-score, replicate 1: 0.42

For Marf1 [DRSC03747], what was measured?
z-score, replicate 1: -0.03

Which result is listed for Marf1 [DRSC03774]?
z-score, replicate 1: -0.26

With Pex19 [DRSC02839], how do the results read?
z-score, replicate 1: 0.56

Looked up above.
Under “z-score, replicate 1”, Marf1 [DRSC03774] has -0.26
Value of Pex19 [DRSC02839] in “z-score, replicate 1”: 0.56

Further reagents:
For CG7878 [DRSC16330], what was measured?
z-score, replicate 1: 0.14

With CG9240 [DRSC20177], how do the results read?
z-score, replicate 1: 0.35

What did the screen give for Fsn [DRSC06875]?
z-score, replicate 1: 0.17

What is on record for CG42525 [DRSC08026]?
z-score, replicate 1: 0.18

Which result is listed for CG13065 [DRSC09948]?
z-score, replicate 1: 0.08

With CG7094 [DRSC03005], how do the results read?
z-score, replicate 1: 0.25

Which result is listed for S6k [DRSC11276]?
z-score, replicate 1: -0.39

What is on record for Mst84B [DRSC12579]?
z-score, replicate 1: 0.2

What is on record for CG2278 [DRSC18226]?
z-score, replicate 1: 0.26

For CG6912 [DRSC16132], what does the deposit list?
z-score, replicate 1: 0.09
